Source: doi:10.1371/journal.pone.0140310, primary screening data, rounded.

Drug key:
XAV939 (2 µM): Oc1nc(-c2ccc(C(F)(F)F)cc2)nc2c1CSCC2
AS-252424 (1 µM): O=C1NC(=O)/C(=C/c2ccc(-c3ccc(F)cc3O)o2)S1
BI-78D3 (0.2 µM): O=c1[nH]nc(Sc2ncc([N+](=O)[O-])s2)n1-c1ccc2c(c1)OCCO2
PD173074 (0.1 µM): CCN(CC)CCCCNc1ncc2cc(-c3cc(OC)cc(OC)c3)c(NC(=O)NC(C)(C)C)nc2n1
MK-2206 (0.4 µM): NC1(c2ccc(-c3nc4ccn5c(=O)[nH]nc5c4cc3-c3ccccc3)cc2)CCC1
tamatinib (0.4 µM): COc1cc(Nc2ncc(F)c(Nc3ccc4c(n3)NC(=O)C(C)(C)O4)n2)cc(OC)c1OC
Src-I1 (2 µM): COc1cc2ncnc(Nc3ccc(Oc4ccccc4)cc3)c2cc1OC
PLX4720 (0.08 µM): CCCS(=O)(=O)Nc1ccc(F)c(C(=O)c2c[nH]c3ncc(Cl)cc23)c1F
GSK650394 (0.16 µM): O=C(O)c1ccc(-c2c[nH]c3ncc(-c4ccccc4)cc23)cc1C1CCCC1
ruxolitinib (1 µM): N#CC[C@H](C1CCCC1)n1cc(-c2ncnc3[nH]ccc23)cn1
sorafenib (0.4 µM): CNC(=O)c1cc(Oc2ccc(NC(=O)Nc3ccc(Cl)c(C(F)(F)F)c3)cc2)ccn1
tipifarnib (0.01 µM): Cn1cncc1[C@@](N)(c1ccc(Cl)cc1)c1ccc2c(c1)c(-c1cccc(Cl)c1)cc(=O)n2C

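Human melanoma cells were exposed to two drugs together for 72 h in 1,536-well plates and read by automated microscopy after fixing and staining. The read-out is cell count (nuclei) in % of the DMSO control; lower values mean stronger growth inhibition or killing. Every drug was used at one fixed concentration, the lower of two screened (a fifth of the higher). The file gives one value for each pair and line, without errors, so small differences may be noise.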 An unselected part of the screen is shown. A dash means that no value is listed here.

Drugs | C32 | A2058 | A101D | 501mel | A375
ruxolitinib + MK-2206 | 101 | 88.6 | 122 | - | 84.5
ruxolitinib + GSK650394 | 85.7 | 107 | 107 | - | 102
PLX4720 + PD173074 | 70.5 | 115 | 101 | 140 | -
PD173074 + AS-252424 | 102 | 113 | 120 | 93.1 | 105
AS-252424 + BI-78D3 | 83.4 | 98.4 | 106 | 89.1 | -
PD173074 + GSK650394 | 95.4 | 112 | 90.9 | 94.1 | 91.1
ruxolitinib + XAV939 | 86.9 | 76.0 | 115 | 102 | -
tipifarnib + GSK650394 | 98.6 | 84.4 | 88.4 | - | 92.5
AS-252424 + MK-2206 | 82.8 | 84.9 | 82.9 | 123 | -
BI-78D3 + tamatinib | 94.4 | 89.7 | 86.8 | - | 78.7
BI-78D3 + Src-I1 | 100 | 93.9 | 109 | 93.3 | -
XAV939 + PLX4720 | 92.7 | 101 | 90.8 | 92.9 | -
PLX4720 + ruxolitinib | 76.1 | 89.7 | 111 | - | 101
GSK650394 + BI-78D3 | 97.8 | 107 | 97.7 | - | 75.9
sorafenib + AS-252424 | 96.5 | 108 | 98.7 | 124 | -
MK-2206 + tipifarnib | 87.6 | 82.0 | 65.0 | - | 65.5
Src-I1 + PD173074 | 98.1 | 96.2 | 101 | 102 | 103
GSK650394 + tamatinib | 102 | 94.3 | 88.0 | - | 88.0
sorafenib + tamatinib | 106 | 95.1 | 81.8 | - | 80.3
GSK650394 + XAV939 | 73.2 | 84.1 | 107 | 117 | 92.5
tipifarnib + sorafenib | 97.3 | 86.5 | 96.7 | - | 96.9
MK-2206 + GSK650394 | 79.5 | 97.8 | 88.7 | - | 83.0
tamatinib + MK-2206 | 85.9 | 79.8 | 64.2 | - | 51.2
tamatinib + PLX4720 | 74.5 | 93.5 | 67.4 | - | 67.2
GSK650394 + AS-252424 | 89.4 | 92.0 | 102 | 91.4 | 104
XAV939 + sorafenib | 102 | 68.0 | 105 | 105 | -
tipifarnib + PLX4720 | 78.6 | 85.0 | 79.7 | - | 73.0
BI-78D3 + tipifarnib | 83.8 | 92.1 | 92.8 | - | 87.3
tamatinib + XAV939 | 91.1 | 72.8 | 92.6 | 94.7 | 98.0
tipifarnib + ruxolitinib | 98.0 | 75.6 | 111 | - | 80.2
Src-I1 + ruxolitinib | 98.8 | 101 | 104 | 96.7 | -
PLX4720 + BI-78D3 | 72.6 | 106 | 89.3 | - | 85.6
Src-I1 + sorafenib | 88.7 | 92.8 | 88.8 | 85.3 | -